Data as given in PMC4726432.
These are yes or no findings as the source states them, for the method shown. In cells and extracts the contact can be indirect. Some entries that bind do so weakly or less than the wild type. Sequences can lack the tags named with a protein.

Target: T1, Myc-Irx3 (UniProt P81067)
T1 sequence: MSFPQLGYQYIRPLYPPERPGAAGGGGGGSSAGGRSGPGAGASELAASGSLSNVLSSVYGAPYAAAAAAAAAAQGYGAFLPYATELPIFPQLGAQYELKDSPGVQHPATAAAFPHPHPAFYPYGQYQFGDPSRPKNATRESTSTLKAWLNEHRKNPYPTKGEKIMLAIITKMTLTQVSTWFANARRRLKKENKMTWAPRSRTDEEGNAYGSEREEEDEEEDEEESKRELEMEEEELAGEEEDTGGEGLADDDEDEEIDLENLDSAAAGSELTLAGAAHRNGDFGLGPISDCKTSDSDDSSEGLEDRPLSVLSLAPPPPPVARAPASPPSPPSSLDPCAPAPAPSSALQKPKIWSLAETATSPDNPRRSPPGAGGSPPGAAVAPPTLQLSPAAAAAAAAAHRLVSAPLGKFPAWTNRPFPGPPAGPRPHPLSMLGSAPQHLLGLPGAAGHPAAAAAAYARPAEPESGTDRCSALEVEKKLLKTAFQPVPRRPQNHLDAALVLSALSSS
Test: co-IP; COS-7 cells 48 hours after transfection with PCx, Myc-Irx3 and HA-Tbx5 constructs; incubation with the indicated antibodies overnight at 4 °C, protein G-Sepharose beads, immunoblot

B1: HA-Tbx5 (protein, UniProt P70326 1-518)
chain: MADTDEGFGLARTPLEPDSKDRSCDSKPESALGAPSKSPSSPQAAFTQQGMEGIKVFLHERELWLKFHEVGTEMIITKAGRRMFPSYKVKVTGLNPKTKYILLMDIVPADDHRYKFADNKWSVTGKAEPAMPGRLYVHPDSPATGAHWMRQLVSFQKLKLTNNHLDPFGHIILNSMHKYQPRLHIVKADENNGFGSKNTAFCTHVFPETAFIAVTSYQNHKITQLKIENNPFAKGFRGSDDLELHRMSRMQSKEYPVVPRSTVRHKVTSNHSPFSSETRALSTSSNLGSQYQCENGVSGPSQDLLPPPNPYPLAQEHSQIYHCTKRKDEECSSTEHPYKKPYMETSPSEEDTFYRSGYPQQQGLSTSYRTESAQRQACMYASSAPPSEPVPSLEDISCNTWPSMPSYSSCTVTTVQPMDRLPYQHFSAHFTSGPLVPRLAGMANHGSPQLGEGMFQHQTSVAHQPVVRQCGPQTGLQSPGGLQPPEFLYTHGVPRTLSPHQYHSVHGVGMVPEWSENS
B1 was tested, and the binding was “binds”.
